Laboratory results published in article PMC9377071.
Results are given in words; binding and its absence hold for the method and conditions named. In cells and extracts the contact can be indirect.

Biological target: Flag-tagged TauP301S (HTau 0N4R, P301S mutant) (human)
Test: co-IP; HEK 293T cells transfected with vector or Flag-TauP301S for 48 h; lysed in NP-40 buffer; lysate incubated with FLAG beads for 4 h; beads washed six times; immunoblot

binding: no binding
B1: mixed lineage kinase domain-like protein (protein, UniProt Q8NB16 1-471)
chain: MENLKHIITLGQVIHKRCEEMKYCKKQCRRLGHRVLGLIKPLEMLQDQGKRSVPSEKLTTAMNRFKAALEEANGEIEKFSNRSNICRFLTASQDKILFKDVNRKLSDVWKELSLLLQVEQRMPVSPISQGASWAQEDQQDADEDRRAFQMLRRDNEKIEASLRRLEINMKEIKETLRQYLPPKCMQEIPQEQIKEIKKEQLSGSPWILLRENEVSTLYKGEYHRAPVAIKVFKKLQAGSIAIVRQTFNKEIKTMKKFESPNILRIFGICIDETVTPPQFSIVMEYCELGTLRELLDREKDLTLGKRMVLVLGAARGLYRLHHSEAPELHGKIRSSNFLVTQGYQVKLAGFELRKTQTSMSLGTTREKTDRVKSTAYLSPQELEDVFYQYDVKSEIYSFGIVLWEIATGDIPFQGCNSEKIRKLVAVKRQQEPLGEDCPSELREIIDECRAHDPSVRPSVDEILKKLSTFSK
